Measured values: publication doi:10.1101/2024.10.21.619543
No constants are given. Whether binding was seen depends on the method and setting. Binding seen in cells or lysates may run through a third protein. Some entries that bind do so weakly or less than the wild type. One block for each binder: values may come before it.

Chains of the proteins cited; added tags and fusions are not shown. Lines headed by an entry give the natural chain unless they say otherwise; changes in a name come on top.
UniProt Q9C005: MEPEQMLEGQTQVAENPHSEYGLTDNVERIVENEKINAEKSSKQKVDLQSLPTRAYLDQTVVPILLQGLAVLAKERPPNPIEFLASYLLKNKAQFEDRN
UniProt Q15291: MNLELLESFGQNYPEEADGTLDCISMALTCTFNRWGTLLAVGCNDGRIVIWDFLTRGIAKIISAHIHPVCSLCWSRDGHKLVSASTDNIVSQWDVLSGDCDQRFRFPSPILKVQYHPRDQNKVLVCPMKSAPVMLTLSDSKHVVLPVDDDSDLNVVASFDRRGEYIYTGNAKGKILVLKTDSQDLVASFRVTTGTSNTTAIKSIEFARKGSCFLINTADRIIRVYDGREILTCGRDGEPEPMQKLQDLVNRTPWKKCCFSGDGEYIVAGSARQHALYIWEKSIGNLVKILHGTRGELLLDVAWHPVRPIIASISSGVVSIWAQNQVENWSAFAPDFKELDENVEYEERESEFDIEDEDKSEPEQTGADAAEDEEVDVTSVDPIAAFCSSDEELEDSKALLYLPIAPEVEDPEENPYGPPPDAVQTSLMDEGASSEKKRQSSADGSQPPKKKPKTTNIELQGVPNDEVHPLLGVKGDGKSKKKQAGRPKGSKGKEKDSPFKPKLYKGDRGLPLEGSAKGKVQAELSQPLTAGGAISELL
UniProt Q9UBL3: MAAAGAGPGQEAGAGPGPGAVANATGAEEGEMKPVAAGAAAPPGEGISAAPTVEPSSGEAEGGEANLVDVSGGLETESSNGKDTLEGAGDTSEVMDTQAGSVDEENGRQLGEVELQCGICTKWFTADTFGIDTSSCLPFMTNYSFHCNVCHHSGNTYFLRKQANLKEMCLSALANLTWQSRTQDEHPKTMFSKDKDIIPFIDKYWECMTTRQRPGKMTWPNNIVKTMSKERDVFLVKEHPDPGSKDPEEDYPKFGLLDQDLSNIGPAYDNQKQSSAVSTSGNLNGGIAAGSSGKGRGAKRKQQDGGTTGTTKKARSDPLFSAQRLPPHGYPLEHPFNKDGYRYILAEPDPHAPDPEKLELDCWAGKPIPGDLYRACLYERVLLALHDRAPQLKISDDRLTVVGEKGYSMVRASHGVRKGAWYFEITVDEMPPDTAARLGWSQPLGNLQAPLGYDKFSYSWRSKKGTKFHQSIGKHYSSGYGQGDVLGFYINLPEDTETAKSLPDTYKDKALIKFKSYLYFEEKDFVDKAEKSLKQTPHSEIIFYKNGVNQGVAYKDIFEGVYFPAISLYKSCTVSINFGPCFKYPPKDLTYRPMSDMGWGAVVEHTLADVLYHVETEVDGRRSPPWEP

What was measured:
[1] = target: DPY30 mutant L69D, overexpressed in KPC or PATC53 cells (human) (UniProt Q9C005); assay: co-IP
[2] = target: RBBP5 (endogenous, PATC53 cells) (human (endogenous in PATC53)) (UniProt Q15291); assay: co-IP
[3] = target: ASH2L (endogenous, PATC53 cells) (human (endogenous in PATC53)) (UniProt Q9UBL3); assay: co-IP
[4] = target: DPY30 (endogenous, human PDAC cells) (human (endogenous in PATC53 and PATC66)) (UniProt Q9C005); assay: proximity ligation

- binding [1]: no binding
- binding [2]: binds
- binding [3]: binds
B1: MCM6 (endogenous, human PDAC cells) (protein, UniProt Q14566 1-821)
chain: MDLAAAAEPGAGSQHLEVRDEVAEKCQKLFLDFLEEFQSSDGEIKYLQLAEELIRPERNTLVVSFVDLEQFNQQLSTTIQEEFYRVYPYLCRALKTFVKDRKEIPLAKDFYVAFQDLPTRHKIRELTSSRIGLLTRISGQVVRTHPVHPELVSGTFLCLDCQTVIRDVEQQFKYTQPNICRNPVCANRRRFLLDTNKSRFVDFQKVRIQETQAELPRGSIPRSLEVILRAEAVESAQAGDKCDFTGTLIVVPDVSKLSTPGARAETNSRVSGVDGYETEGIRGLRALGVRDLSYRLVFLACCVAPTNPRFGGKELRDEEQTAESIKNQMTVKEWEKVFEMSQDKNLYHNLCTSLFPTIHGNDEVKRGVLLMLFGGVPKTTGEGTSLRGDINVCIVGDPSTAKSQFLKHVEEFSPRAVYTSGKASSAAGLTAAVVRDEESHEFVIEAGALMLADNGVCCIDEFDKMDVRDQVAIHEAMEQQTISITKAGVKATLNARTSILAAANPISGHYDRSKSLKQNINLSAPIMSRFDLFFILVDECNEVTDYAIARRIVDLHSRIEESIDRVYSLDDIRRYLLFARQFKPKISKESEDFIVEQYKHLRQRDGSGVTKSSWRITVRQLESMIRLSEAMARMHCCDEVQPKHVKEAFRLLNKSIIRVETPDVNLDQEEEIQMEVDEGAGGINGHADSPAPVNGINGYNEDINQESAPKASLRLGFSEYCRISNLIVLHLRKVEEEEDESALKRSELVNWYLKEIESEIDSEEELINKKRIIEKVIHRLTHYDHVLIELTQAGLKGSTEGSESYEEDPYLVVNPNYLLED

- binding [4]: binds
B2: WDHD1 (endogenous, human PDAC cells) (protein, UniProt O75717 1-1129)
chain: MPATRKPMRYGHTEGHTEVCFDDSGSFIVTCGSDGDVRIWEDLDDDDPKFINVGEKAYSCALKSGKLVTAVSNNTIQVHTFPEGVPDGILTRFTTNANHVVFNGDGTKIAAGSSDFLVKIVDVMDSSQQKTFRGHDAPVLSLSFDPKDIFLASASCDGSVRVWQISDQTCAISWPLLQKCNDVINAKSICRLAWQPKSGKLLAIPVEKSVKLYRRESWSHQFDLSDNFISQTLNIVTWSPCGQYLAAGSINGLIIVWNVETKDCMERVKHEKGYAICGLAWHPTCGRISYTDAEGNLGLLENVCDPSGKTSSSKVSSRVEKDYNDLFDGDDMSNAGDFLNDNAVEIPSFSKGIINDDEDDEDLMMASGRPRQRSHILEDDENSVDISMLKTGSSLLKEEEEDGQEGSIHNLPLVTSQRPFYDGPMPTPRQKPFQSGSTPLHLTHRFMVWNSIGIIRCYNDEQDNAIDVEFHDTSIHHATHLSNTLNYTIADLSHEAILLACESTDELASKLHCLHFSSWDSSKEWIIDLPQNEDIEAICLGQGWAAAATSALLLRLFTIGGVQKEVFSLAGPVVSMAGHGEQLFIVYHRGTGFDGDQCLGVQLLELGKKKKQILHGDPLPLTRKSYLAWIGFSAEGTPCYVDSEGIVRMLNRGLGNTWTPICNTREHCKGKSDHYWVVGIHENPQQLRCIPCKGSRFPPTLPRPAVAILSFKLPYCQIATEKGQMEEQFWRSVIFHNHLDYLAKNGYEYEESTKNQATKEQQELLMKMLALSCKLEREFRCVELADLMTQNAVNLAIKYASRSRKLILAQKLSELAVEKAAELTATQVEEEEEEEDFRKKLNAGYSNTATEWSQPRFRNQVEEDAEDSGEADDEEKPEIHKPGQNSFSKSTNSSDVSAKSGAVTFSSQGRVNPFKVSASSKEPAMSMNSARSTNILDNMGKSSKKSTALSRTTNNEKSPIIKPLIPKPKPKQASAASYFQKRNSQTNKTEEVKEENLKNVLSETPAICPPQNTENQRPKTGFQMWLEENRSNILSDNPDFSDEADIIKEGMIRFRVLSTEERKVWANKAKGETASEGTEAKKRKRVVDESDETENQEEKAKENLNLSKKQKPLDFSTNQKLSAFAFKQE

- binding [1]: no binding
B3: MCM6 (endogenous, mouse KPC cells) (protein, UniProt P97311 1-821)
chain: MDLAAAAEPGAGSQHPEVRDEVAEKCQKLFLDFLEEFQGSDGEIKYLQFAEELIRPERNTLVVSFADLEQFNQQLSTTIQEEFYRVYPYLCRALKTFVKDRKEIPFAKDFYVAFQDLPTRHKIRELTSSRIGLLTRISGQVVRTHPVHPELVSGTFLCLDCQTVIKDVEQQFKYTQPNICRNPVCANRKRFLLDTNKSRFVDFQKVRIQETQAELPRGSIPRSLEVILRAEAVESAQAGDRCDFTGALIVVPDVSKLSTPGARAETNSRVSGADGYETEGIRGLRALGVRDLSYRLVFLACHVAPTNPRFGGKELRDEEQTAESIKNQMTVKEWEKVFEMSQDKNLYHNLCTSLFPTIHGNDEVKRGVLLMLFGGVPKTTGEGTSLRGDINVCIVGDPSTAKSQFLKHVDEFSPRAVYTSGKASSAAGLTAAVVRDEESHEFVIEAGALMLADNGVCCIDEFDKMDMRDQVAIHEAMEQQTISITKAGVKATLNARTSILAAANPVSGHYDRSKSLKQNINLSAPIMSRFDLFFILVDECNEVTDYAIARRIVDLHSRIEESIDRVYSLDDIRRYLLFARQFKPKISKESEDFIVEQYKRLRQRDGSGVTKSSWRITVRQLESMIRLSESMARMHCCDEVQPKHVKEAFRLLNKSIIRVETPDVNLDQEEEIQMETDEGQGGVNGHADSPAPVNRFNGSSEDASQETVSKPSLRLGFAEYCRISNLIVLHLRKMEEEEDESALKRSELVNWYLKEIESEIDSEEELINKKTIIEKVVHRLTHYDHVLIELTQAGLKGSSEGSESYEEDPYLVVNPNYLLED
